Drawing on article PMC12029333, this text covers binding for eleven molecules.

For this assay, the target named is T1, GST-PrkC (Serine/threonine-protein kinase PrkC) (Bacillus subtilis str. 168) (UniProt O34507).
T1 sequence: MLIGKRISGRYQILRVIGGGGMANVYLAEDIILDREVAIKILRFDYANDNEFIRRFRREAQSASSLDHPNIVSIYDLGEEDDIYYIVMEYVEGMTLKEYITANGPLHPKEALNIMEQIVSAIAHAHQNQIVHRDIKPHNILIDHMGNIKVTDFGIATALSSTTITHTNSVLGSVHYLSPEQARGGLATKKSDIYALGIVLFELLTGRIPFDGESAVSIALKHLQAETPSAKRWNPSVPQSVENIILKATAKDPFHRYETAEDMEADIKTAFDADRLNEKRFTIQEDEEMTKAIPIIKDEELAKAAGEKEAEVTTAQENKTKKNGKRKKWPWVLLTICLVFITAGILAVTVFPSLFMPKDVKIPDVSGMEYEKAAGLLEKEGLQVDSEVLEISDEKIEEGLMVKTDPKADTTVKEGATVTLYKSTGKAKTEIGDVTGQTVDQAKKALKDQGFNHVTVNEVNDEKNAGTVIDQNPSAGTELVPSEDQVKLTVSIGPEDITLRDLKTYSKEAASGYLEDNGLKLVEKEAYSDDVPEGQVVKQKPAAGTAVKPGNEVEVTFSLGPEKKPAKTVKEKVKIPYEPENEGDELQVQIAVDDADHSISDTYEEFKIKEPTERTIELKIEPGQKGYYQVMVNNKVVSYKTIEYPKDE
The assay is described as follows: affinity purification with mass spectrometry; GST-PrkC on glutathione resin incubated with B. subtilis spore lysate at 4 °C; resin washed; bound proteins eluted with 20 mM reduced glutathione; eluate digested with trypsin and analysed by LC-MS/MS; hits filtered at 1% FDR, >=2 unique peptides; only the target purified.

These are yes or no findings as the source states them, for the method shown. Binding seen in cells or lysates may run through a third protein. These calls come from enrichment with a bait or labelling near it, and not all partners need be listed. Tags and fused reporters may be left off the sequences shown.

B1: Endolytic murein transglycosylase (protein, UniProt O34758 1-360)
chain: MYINQQKKSFFNKKRIILSSIVVLFLIIGGAFLYGKSLLEPVEKDSKTTVNINIPSGSSVSAIASILKKNDVIKSEKAFQYYVKYKGASGFQAGFYHLNKGMDLDAIIQKLTSGATGYAFQITVTEGAQLTQIAAAIADETKYSKKQVIAKLDDETFINQLKKEFPDTVTNDVFNKNIKHPLEGYLFPATYPFNDPDTSLEDIIKAMIKQTNSYVETYKSEMKKNKVSVHKLLTMASLIEEEATEKADRHKIASVFYNRLKKKMPLQTDPTVLYAAGKHKDRVLYKDLEIDSPYNTYKNTGLTPGPIANAGMSSWEAALHPDKTDYLYFLAKSNGEVVFTKTLKEHNKAKEKYISSKNEK
Take B1: the binding result is recorded as “binds”.

B2: NADH dehydrogenase-like protein YumB (protein, UniProt O05267 1-406)
chain: MALNKPKIVILGAGYGGLMTVTRLTKYVGPNDADITLVNKHNYHYETTWMHEASAGTLHHDRCRYQIKDVINQSRVNFVQDTVKAIKIDEKKVVLANGELQYDYLVIGLGAVPETFGIKGLKEYAFPIANINTSRLLREHIELQFATYNTEAEKRPDRLTIVVGGAGFTGIEFLGELAARVPELCKEYDVDRSLVRIICVEAAPTVLPGFDPELVDYAVHYLEENGVEFKIGTAVQECTPEGVRVGKKDEEPEQIKSQTVVWAAGVRGHPIVEEAGFENMRGRVKVNPDLRAPGHDNVFILGDSSLFMNEDTERPYPPTAQIAMQQGITVAKNLGRLIKGGELEEFKPDIKGTVASLGEHNAVGVVYGRKLKGTPASFMKKVIDNRSLFMIGGLGLTLKKGKFKFF
B2: the binding entry is on record as “binds”.

B3: ESX secretion system protein YukB (protein, UniProt C0SPA7 1-1495)
chain: MSLLWVFYQNNVQKLNLSNLPSSHPVTIGPDVKDSVTISTIPFNSGVISLKRKESGGQYEVFLGNDCLGTIETDISFTLQTDQQDIRLILTGSEPEKSVYFTGNRDEIVCSSEKTNADIYLNPQDFAFAEQSTFSLLRAGGSWSVRPESGTIFLNGEKINANTPLKPGDEIFWNFTQMRVTEQDLLEIVHYAQFETALTETVKPSTEMQKKYPQYRRTPRMVYDLPDDRVSFSFPSQESDQTNRGLWLVILPPLVMLIVMGVVAIIQPRGIFILVSLAMFMMTLITSTVQYFRDKNQRKKREEKRERVYKLYLDNKRKELQALAEKQKQVLEFHFPSFEQMKYLTSEISDRIWEKSLESKDYLQLRLGTGTVPSSYEINMSGGDLANRDIDDLMEKSQHMQRVYKDIRNAPVTVDLAEGPMGLVGKSQIVKNEIHQLIGQLSFFNSYHDLRFVFIFHEEEYKDWEWMKWLPQFQMPHIYAKGFIYNEQTRDQLLSSLYELIRERDLEDDKEKLQFKPHFVFVITNQQLISEHVILEYLEGQHEHLGISTIVAAETKESLSENITTLVRYINEHEGDILIQKKKAVRIPFRLDHHQREDNERFSRTLRTLNHQVGITNSIPETVSFLELFHAKEVKEIGIQQRWLTSESSKSLSVPIGYKGKDDIVYLNLHEKAHGPHGLLAGTTGSGKSEFLQTYILSLAVHFHPHEAAFLLIDYKGGGMAQPFRNIPHLLGTITNIEGSKNFSMRALASIKSELKKRQRLFDQYQVNHINDYTKLYKQGKAEVAMPHLFLISDEFAELKSEEPDFIRELVSAARIGRSLGVHLILATQKPGGIIDDQIWSNSRFKVALKVQDATDSKEILKNSDAANITVTGRGYLQVGNNEVYELFQSAWSGAPYLEEVYGTEDEIAIVTDTGLIPLSEVDTEDNAKKDVQTEIEAVVDEIERIQDEMGIEKLPSPWLPPLAERIPRTLFPSNEKDHFHFAYVDEPDLQRQAPIAYKMMEDGNIGIFGSSGYGKSIAAATFLMSFADVYTPEELHVYIFDFGNGTLLPLAKLPHTADYFLMDQSRKIEKFMIRIKEEIDRRKRLFREKEISHIKMYNALSEEELPFIFITIDNFDIVKDEMHELESEFVQLSRDGQSLGIYFMLTATRVNAVRQSLLNNLKTKIVHYLMDQSEGYSIYGRPKFNLEPIPGRVIIQKEELYFAQMFLPVDADDDIGMFNELKSDVQKLQGRFASMEQPAPIPMLPESLSTRELSIRFKLERKPLSVPIGLHEETVSPVYFDLGKHKHCLILGQTQRGKTNVLKVMLEHLIDDETEMIGLFDSIDRGLSHYAKESDVSYLETKEDIEQWIETAEDIFKTREAMYVEAVRQGDAQNLRFSQVVLMIDGITRFQQTIDTRIQDRLANFMKSYAHLGFSFIPGGNHSEFSKGYDSLTTEMKQIRHAILLMKKSEQNVIPLPYQRQEPEIQPGFGYVVENGKEQKVQIPLCSAERESAR
As for B3, the binding entry was “binds”.

B4: Uncharacterized protein YqhR (protein, UniProt P54516 1-178)
chain: MMTSEKDTEQNEELNEKQKPPVSMAGRVAATGFCGGVLWSFVAYIAYLFHFSEISPNMILQPFVLGEWKKHGLGTVISIILIGVISIGAAFLYFLLLKRLKTMWPGILYGLVLWLLVFFVFNPIFPDVRTVTELTSDTIITTICIYLLYGLFVGYSISFEYNELNSEKLARALGMHRE
For B4, the binding result was “binds”.

B5: Uncharacterized protein YqeW (protein, UniProt P54463 1-307)
chain: MLILISFTALILFFLAGMNMLRKGLISMAYSKIEERLLLFTDHPLKAFLISIVFTGILQSSSAFMVIVIGFVSAGVLSFKRTIPMILGTNVGSTFTTEFIAIKMDIVIWVLLIGGLLFFLTGRYPLKQLGTSFLGLGIIFFCISGFSHLAGPLTKLKTGADVLYHVNDSNWSALLIGMVLTAIIHSSSVCIGILMSFMNEGIIGLTQAMSVVLGSNIGTCITAVMAAVSGGYAAKQTAYAHVVFNVLGVALVLPFLTAATGFVEQLSPDPAQKIAHFSLLFNVVTALLFLPLTNLFYRLIHLLIPAK
B5: the binding result is on record as “binds”.

B6: Toxin YqcG (protein, UniProt P45942 1-531)
chain: MKVFEAKTLLTEAEKRAQEYKDLKSKMVKLKKAFKAVADLDDSEFSGKGANNIKSFYEDQAGIADQWIDLIEMKISFLTSIPGFLEDANLSDAYIEETFLAHELANAYTKSKSIMSEQKKAMKDILNDINDILPLDLFSTETFKNELSSAEKKRKEAIEKMDEVDQNLTSEYGLSEANEQMIQADYQALMNATAKGKSASPIHYNAKAYRDSEIHKMTEDVKKQSTDYISFKDQQAEQRRIAKEQEELANRPWYEKSWDAVCNFTGEVSGYYDYKRAADGVDPVTGEKLTAGQRVAAGAMAAAGYIPIVGWAGKLAKGGKAVYSTSKALYRADKALDVYKTPKTFHALQNSSKGLYGLASANGFSEAITGRDMFGNKVSKERQEQSLSGAMAMLVPFGARGINKKLNAKSSSRVSEASTNTSKKPKVPKTYKRPTYFRKGVRDKVWENAKDSTGSVKDPLTKQVMKKDEPWDMGHKPGYEFRKHQQSAMERNISRKQFLDEHNNPDHYQPELPSSNRSHKGEDMTDDYFGD
With B6, the binding entry is given as “binds”.

B7: HTH-type transcriptional repressor NagR (protein, UniProt O34817 1-243)
chain: MNINKQSPIPIYYQIMEQLKTQIKNGELQPDMPLPSEREYAEQFGISRMTVRQALSNLVNEGLLYRLKGRGTFVSKPKMEQALQGLTSFTEDMKSRGMTPGSRLIDYQLIDSTEELAAILGCGHPSSIHKITRVRLANDIPMAIESSHIPFELAGELNESHFQSSIYDHIERYNSIPISRAKQELEPSAATTEEANILGIQKGAPVLLIKRTTYLQNGTAFEHAKSVYRGDRYTFVHYMDRLS
As for B7, the binding entry is on record as “binds”.

B8: UPF0354 protein YtpQ (protein, UniProt O34496 1-269)
chain: MKMTSRKLSDILKQRLQHENRSFLFDREKDTLRVEDQTTKKGITLDLPPIIAKWELKKDEAIDEIVYYVSEAMTAMEGKAQEMTGKETRIYPVIRSTSFPDKSSEDIPLIYDDHTAETRIYYALDLGKTYRLIDQRMLEKENWTKERIRETAAFNLRSLPTVVKEDTVAGNYFYFFRANDGYDASRILNEAILNEYKQHAEGELAISVPHQDVLILADIRNESGYDILGQMSMSFFAGGTVPITALSFLYNEGKLEPVFILAKSRPKKD
For the molecule B8, the binding result is “binds”.

B9: Laccase (protein, UniProt P07788 1-513)
chain: MTLEKFVDALPIPDTLKPVQQSKEKTYYEVTMEECTHQLHRDLPPTRLWGYNGLFPGPTIEVKRNENVYVKWMNNLPSTHFLPIDHTIHHSDSQHEEPEVKTVVHLHGGVTPDDSDGYPEAWFSKDFEQTGPYFKREVYHYPNQQRGAILWYHDHAMALTRLNVYAGLVGAYIIHDPKEKRLKLPSDEYDVPLLITDRTINEDGSLFYPSAPENPSPSLPNPSIVPAFCGETILVNGKVWPYLEVEPRKYRFRVINASNTRTYNLSLDNGGDFIQIGSDGGLLPRSVKLNSFSLAPAERYDIIIDFTAYEGESIILANSAGCGGDVNPETDANIMQFRVTKPLAQKDESRKPKYLASYPSVQHERIQNIRTLKLAGTQDEYGRPVLLLNNKRWHDPVTETPKVGTTEIWSIINPTRGTHPIHLHLVSFRVLDRRPFDIARYQESGELSYTGPAVPPPPSEKGWKDTIQAHAGEVLRIAATFGPYSGRYVWHCHILEHEDYDMMRPMDITDPHK
In the case of B9, the binding entry is reported as “binds”.

B10: Uncharacterized oxidoreductase YrbE (protein, UniProt O05389 1-341)
chain: MTKQIVTGIIGAGRIGKLHVQNISRIPHMKIKAISDIQASRIKSWADSHQIEYITSDYRDLLHDPDIDAIFICSPTAVHAQMIKEAAEAKKHIFCEKPVSFSLDETSEALAAVRKHGVTLQVGFNRRFDPHFKKIKTIVENGEIGTPHLLKITSRDPEPPNIDYVRTSGGLFMDMSIHDFDMARYIMGSEVTEVYAKGAALVNPSFAELGDIDTAVITLTFENGAMAVIDNSRQAVYGYDQRVEVFGTKGSAAADNSRPTTVEVSTADFVMKDKPHFFFLERYKDSYEEEILRFAEAIGTNQETPCTGNDGLQAGRIARAAQQSLAFGMPVSIEHTEKIAF
As for B10, the binding result was “binds”.

B11: Putative NAD(P)H-dependent FMN-containing oxidoreductase YwqN (protein, UniProt P96726 1-181)
chain: MKIAVINGGTRSGGNTDVLAEKAVQGFDAEHIYLQKYPIQPIEDLRHAQGGFRPVQDDYDSIIERILQCHILIFATPIYWFGMSGTLKLFIDRWSQTLRDPRFPDFKQQMSVKQAYVIAVGGDNPKIKGLPLIQQFEHIFHFMGMSFKGYVLGEGNRPGDILRDHQALSAASRLLKRSDAI
For B11, the binding result is on record as “binds”.
